Test results taken from paper doi:10.1101/2022.01.11.475809.
These are yes or no findings as the source states them, for the method shown. In cells and extracts the contact can be indirect. Some results given as binding are weak or reduced against the parent protein; the word gives no strength.

By UniProt entry, the sequences of proteins in these tests, tags left out. Where a name states a change or a piece, a line headed by the entry shows the natural chain unless it says otherwise. Residues count along the entry.
UniProt P83916, whole entry: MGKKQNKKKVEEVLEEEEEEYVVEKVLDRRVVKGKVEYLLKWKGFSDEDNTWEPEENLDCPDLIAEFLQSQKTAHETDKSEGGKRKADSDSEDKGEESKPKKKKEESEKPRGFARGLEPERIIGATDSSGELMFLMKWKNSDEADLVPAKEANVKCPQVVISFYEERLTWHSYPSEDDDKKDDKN
UniProt P83916, 1-116, stated change not applied: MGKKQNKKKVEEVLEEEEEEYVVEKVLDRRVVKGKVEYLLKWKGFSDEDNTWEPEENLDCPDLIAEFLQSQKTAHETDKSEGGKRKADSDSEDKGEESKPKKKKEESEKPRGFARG
UniProt Q06587, whole entry: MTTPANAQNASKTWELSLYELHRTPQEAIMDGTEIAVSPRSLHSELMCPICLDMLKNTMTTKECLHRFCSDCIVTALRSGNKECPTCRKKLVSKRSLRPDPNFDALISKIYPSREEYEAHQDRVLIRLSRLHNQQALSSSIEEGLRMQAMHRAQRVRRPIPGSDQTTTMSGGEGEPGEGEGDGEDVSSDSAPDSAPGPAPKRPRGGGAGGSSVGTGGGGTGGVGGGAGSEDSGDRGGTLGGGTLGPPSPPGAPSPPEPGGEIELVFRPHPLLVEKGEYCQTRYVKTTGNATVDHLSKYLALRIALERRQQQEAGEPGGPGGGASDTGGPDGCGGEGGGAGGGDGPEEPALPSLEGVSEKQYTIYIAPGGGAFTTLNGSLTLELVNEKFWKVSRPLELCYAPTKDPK
UniProt Q13263, whole entry: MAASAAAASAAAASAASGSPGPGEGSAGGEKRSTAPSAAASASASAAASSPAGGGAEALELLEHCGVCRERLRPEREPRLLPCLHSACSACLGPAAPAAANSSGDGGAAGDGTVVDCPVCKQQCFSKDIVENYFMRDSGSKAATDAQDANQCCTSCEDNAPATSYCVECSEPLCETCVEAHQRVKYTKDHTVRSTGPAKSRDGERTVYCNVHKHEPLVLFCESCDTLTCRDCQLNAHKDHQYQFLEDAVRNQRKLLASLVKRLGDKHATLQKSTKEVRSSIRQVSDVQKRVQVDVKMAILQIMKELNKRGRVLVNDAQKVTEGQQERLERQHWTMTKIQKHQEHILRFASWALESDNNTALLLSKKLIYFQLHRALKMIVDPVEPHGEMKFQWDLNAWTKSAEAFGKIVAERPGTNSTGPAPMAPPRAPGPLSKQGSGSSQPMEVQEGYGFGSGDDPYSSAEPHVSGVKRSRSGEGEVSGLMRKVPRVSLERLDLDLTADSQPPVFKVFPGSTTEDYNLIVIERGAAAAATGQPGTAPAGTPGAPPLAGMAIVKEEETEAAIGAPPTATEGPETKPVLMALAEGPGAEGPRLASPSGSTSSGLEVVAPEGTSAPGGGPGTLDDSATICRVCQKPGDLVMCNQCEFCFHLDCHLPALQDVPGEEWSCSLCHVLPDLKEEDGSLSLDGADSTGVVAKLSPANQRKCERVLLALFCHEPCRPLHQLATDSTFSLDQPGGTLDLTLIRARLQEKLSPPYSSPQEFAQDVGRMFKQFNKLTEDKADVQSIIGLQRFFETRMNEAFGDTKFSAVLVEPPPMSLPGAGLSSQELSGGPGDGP

Tests used:
Experiment in all cases: co-IP
[1] = target: Flag-CD HP1β (Δ amino acids 117-185) (UniProt P83916)
[2] = target: Flag-CSD HP1β (Δ amino acids 22-79) (UniProt P83916)
HA HP1β = HA HP1β (UniProt P83916)
[3] = target: Flag HP1β (full length Heterochromatin Protein1 beta) (UniProt P83916)

| binding [1] | binding [2] | binding (HA HP1β) | binding [3] | Substance |
| --- | --- | --- | --- | --- |
| no binding | binds | binds | – | FLAG RING1A (from UniProt Q06587 1-406) |
| – | binds | – | binds | KAP1 (from UniProt Q13263 1-835) |
| – | – | – | binds | endogenous RING1A (from UniProt Q06587 1-406) |
